Data published in the supplement of paper PMC7661543.
Differences between knockout arms are mostly noise.

Tested on: HCC-38
Test: relative cell number vs DMSO control (72 h) (% of DMSO); higher = less growth inhibition (more cells)
Experimental: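 QMAP-Seq: a pool of 5 breast cancer cell lines (ZR-75-1, SKBR3, HCC-38, MDA-MB-231, BT-20), each carrying 12 doxycycline-inducible Cas9 sgRNA perturbations (11 knockouts plus non-targeting sgNT), was treated with compounds for 72 h at four 10-fold doses (10 nM-10 uM or 1 nM-1 uM range). Barcodes were amplified and sequenced, and cell number was interpolated from 293T spike-in standard curves. The result is expressed as % of the median of DMSO wells. Two biological replicates.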

COc1cc2c(cc1-c1c(C)noc1C)ncc1[nH]c(=O)n([C@H](C)c3ccccn3)c12 [IBET151]
Settings | relative cell number
sgRNA knockout: sgATF3, 10 nM | 86.4
sgRNA knockout: sgATF3, 100 nM | 84.1
sgRNA knockout: sgATF3, 1000 nM | 53.8
sgRNA knockout: sgATF3, 10000 nM | 54.4
sgRNA knockout: sgATF4, 10 nM | 87.5
sgRNA knockout: sgATF4, 100 nM | 83.3
sgRNA knockout: sgATF4, 1000 nM | 50.7
sgRNA knockout: sgATF4, 10000 nM | 53.2
sgRNA knockout: sgATF6, 10 nM | 85.1
sgRNA knockout: sgATF6, 100 nM | 93.2
sgRNA knockout: sgATF6, 1000 nM | 67.7
sgRNA knockout: sgATF6, 10000 nM | 54.6
sgRNA knockout: sgATG7, 10 nM | 87.9
sgRNA knockout: sgATG7, 100 nM | 81.4
sgRNA knockout: sgATG7, 1000 nM | 56.3
sgRNA knockout: sgATG7, 10000 nM | 53.2
sgRNA knockout: sgERN1, 10 nM | 86.1
sgRNA knockout: sgERN1, 100 nM | 87.7
sgRNA knockout: sgERN1, 1000 nM | 59.2
sgRNA knockout: sgERN1, 10000 nM | 54.5
sgRNA knockout: sgHSF1, 10 nM | 88.6
sgRNA knockout: sgHSF1, 100 nM | 85.5
sgRNA knockout: sgHSF1, 1000 nM | 63.9
sgRNA knockout: sgHSF1, 10000 nM | 58.7
sgRNA knockout: sgHSF2, 10 nM | 108
sgRNA knockout: sgHSF2, 100 nM | 93.4
sgRNA knockout: sgHSF2, 1000 nM | 60.8
sgRNA knockout: sgHSF2, 10000 nM | 53.9
sgRNA knockout: sgKEAP1, 10 nM | 91
sgRNA knockout: sgKEAP1, 100 nM | 96.3
sgRNA knockout: sgKEAP1, 1000 nM | 72.2
sgRNA knockout: sgKEAP1, 10000 nM | 54.4
sgRNA knockout: sgNFE2L2, 10 nM | 91
sgRNA knockout: sgNFE2L2, 100 nM | 74.9
sgRNA knockout: sgNFE2L2, 1000 nM | 50.3
sgRNA knockout: sgNFE2L2, 10000 nM | 51.9
sgRNA knockout: sgSLC35F2, 10 nM | 89.3
sgRNA knockout: sgSLC35F2, 100 nM | 76.1
sgRNA knockout: sgSLC35F2, 1000 nM | 57.4
sgRNA knockout: sgSLC35F2, 10000 nM | 51.1
sgRNA knockout: sgXBP1, 10 nM | 88.6
sgRNA knockout: sgXBP1, 100 nM | 81.2
sgRNA knockout: sgXBP1, 1000 nM | 52.8
sgRNA knockout: sgXBP1, 10000 nM | 52.6

O=C(/C=C/c1ccc(O)cc1)c1ccc(O)cc1O [Isoliquiritigenin]
Settings | relative cell number
sgRNA knockout: sgATF3, 10 nM | 94
sgRNA knockout: sgATF3, 100 nM | 98.7
sgRNA knockout: sgATF3, 1000 nM | 86.1
sgRNA knockout: sgATF3, 10000 nM | 89.5
sgRNA knockout: sgATF4, 10 nM | 91.4
sgRNA knockout: sgATF4, 100 nM | 94.6
sgRNA knockout: sgATF4, 1000 nM | 86.4
sgRNA knockout: sgATF4, 10000 nM | 77
sgRNA knockout: sgATF6, 10 nM | 81.1
sgRNA knockout: sgATF6, 100 nM | 93.3
sgRNA knockout: sgATF6, 1000 nM | 104
sgRNA knockout: sgATF6, 10000 nM | 115
sgRNA knockout: sgATG7, 10 nM | 97
sgRNA knockout: sgATG7, 100 nM | 99.1
sgRNA knockout: sgATG7, 1000 nM | 92.314
sgRNA knockout: sgATG7, 10000 nM | 86.7
sgRNA knockout: sgERN1, 10 nM | 97.3
sgRNA knockout: sgERN1, 100 nM | 94.6
sgRNA knockout: sgERN1, 1000 nM | 91.2
sgRNA knockout: sgERN1, 10000 nM | 99.9
sgRNA knockout: sgHSF1, 10 nM | 79.7
sgRNA knockout: sgHSF1, 100 nM | 84.5
sgRNA knockout: sgHSF1, 1000 nM | 110
sgRNA knockout: sgHSF1, 10000 nM | 84.3
sgRNA knockout: sgHSF2, 10 nM | 99.9
sgRNA knockout: sgHSF2, 100 nM | 113
sgRNA knockout: sgHSF2, 1000 nM | 92
sgRNA knockout: sgHSF2, 10000 nM | 86
sgRNA knockout: sgKEAP1, 10 nM | 90.4
sgRNA knockout: sgKEAP1, 100 nM | 96.27
sgRNA knockout: sgKEAP1, 1000 nM | 98
sgRNA knockout: sgKEAP1, 10000 nM | 95.4
sgRNA knockout: sgNFE2L2, 10 nM | 91.5
sgRNA knockout: sgNFE2L2, 100 nM | 92.9
sgRNA knockout: sgNFE2L2, 1000 nM | 80.2
sgRNA knockout: sgNFE2L2, 10000 nM | 77.8
sgRNA knockout: sgSLC35F2, 10 nM | 86.6
sgRNA knockout: sgSLC35F2, 100 nM | 98.2
sgRNA knockout: sgSLC35F2, 1000 nM | 98.1
sgRNA knockout: sgSLC35F2, 10000 nM | 81.902
sgRNA knockout: sgXBP1, 10 nM | 96.4
sgRNA knockout: sgXBP1, 100 nM | 93.8
sgRNA knockout: sgXBP1, 1000 nM | 91.9
sgRNA knockout: sgXBP1, 10000 nM | 87.9

COc1cc2nccc(Oc3ccc(NC(=O)NC4CC4)c(Cl)c3)c2cc1C(N)=O [Lenvatinib]
Settings | relative cell number
sgRNA knockout: sgATF3, 10 nM | 95.4
sgRNA knockout: sgATF3, 100 nM | 111
sgRNA knockout: sgATF3, 1000 nM | 106
sgRNA knockout: sgATF3, 10000 nM | 70.1
sgRNA knockout: sgATF4, 10 nM | 92.5
sgRNA knockout: sgATF4, 100 nM | 102
sgRNA knockout: sgATF4, 1000 nM | 93.1
sgRNA knockout: sgATF4, 10000 nM | 68.3
sgRNA knockout: sgATF6, 10 nM | 110
sgRNA knockout: sgATF6, 100 nM | 115
sgRNA knockout: sgATF6, 1000 nM | 117
sgRNA knockout: sgATF6, 10000 nM | 72.7
sgRNA knockout: sgATG7, 10 nM | 92.7
sgRNA knockout: sgATG7, 100 nM | 103
sgRNA knockout: sgATG7, 1000 nM | 96.8
sgRNA knockout: sgATG7, 10000 nM | 74.9
sgRNA knockout: sgERN1, 10 nM | 88.6
sgRNA knockout: sgERN1, 100 nM | 106
sgRNA knockout: sgERN1, 1000 nM | 93.2
sgRNA knockout: sgERN1, 10000 nM | 69.36
sgRNA knockout: sgHSF1, 10 nM | 110
sgRNA knockout: sgHSF1, 100 nM | 120
sgRNA knockout: sgHSF1, 1000 nM | 117
sgRNA knockout: sgHSF1, 10000 nM | 91.7
sgRNA knockout: sgHSF2, 10 nM | 102
sgRNA knockout: sgHSF2, 100 nM | 124
sgRNA knockout: sgHSF2, 1000 nM | 111
sgRNA knockout: sgHSF2, 10000 nM | 79.2
sgRNA knockout: sgKEAP1, 10 nM | 108
sgRNA knockout: sgKEAP1, 100 nM | 134.8
sgRNA knockout: sgKEAP1, 1000 nM | 116
sgRNA knockout: sgKEAP1, 10000 nM | 85.66
sgRNA knockout: sgNFE2L2, 10 nM | 85.6
sgRNA knockout: sgNFE2L2, 100 nM | 105
sgRNA knockout: sgNFE2L2, 1000 nM | 94.6
sgRNA knockout: sgNFE2L2, 10000 nM | 67.4
sgRNA knockout: sgSLC35F2, 10 nM | 99.8
sgRNA knockout: sgSLC35F2, 100 nM | 108.2
sgRNA knockout: sgSLC35F2, 1000 nM | 95.8
sgRNA knockout: sgSLC35F2, 10000 nM | 74.3
sgRNA knockout: sgXBP1, 10 nM | 97.3
sgRNA knockout: sgXBP1, 100 nM | 107
sgRNA knockout: sgXBP1, 1000 nM | 95.4
sgRNA knockout: sgXBP1, 10000 nM | 74.6
